{"source": "patent US8192854B2", "about": "“Microbial fuel cell treatment of ethanol fermentation process water” (priority 2009, dated 2012)", "key": {"[1]": {"system": "inhibitor-consuming microbial consortium in a microbial fuel cell (MFC-A)", "assay": "Power density analysis of MFC with individual inhibitor as substrate, ferricyanide cathode"}, "[2]": {"system": "inhibitor-consuming microbial consortium in a microbial fuel cell (MFC-A)", "assay": "Removal of inhibitor mixture during enrichment of consortium in MFC-A", "details": "mixture of 0.2 g/L 2-furfural, 0.1 g/L HB, 0.1 g/L HAP, 0.5 g/L VA added at time zero"}, "[3]": {"system": "inhibitor-consuming microbial consortium in a microbial fuel cell (MFC-A)", "assay": "Coulombic efficiency and HPLC analysis of inhibitor conversion in MFC", "details": "individual substrate in MFC"}}}
{"smiles": "O=Cc1ccco1", "note": "[2-furfural]", "values": [{"measurement": "volumetric power density", "setting": "[1]; converted from area power density with anode specific surface area 79 m^2/m^3 and NAV 0.83", "result": 332, "unit": "W/m^3"}, {"measurement": "maximum power density", "setting": "[1]; substrate at 0.2 g/L, projected anode area", "result": 3490, "unit": "mW/m^2"}, {"measurement": "time of consumption of substrate", "setting": "[2]", "result": 7, "unit": "days"}, {"measurement": "coulombic efficiency (CE)", "setting": "[3]", "result": "69 ±3", "unit": "%"}, {"measurement": "degree of mineralization (coulombic efficiency and HPLC data)", "setting": "[3]", "result": "near complete mineralization"}]}
